Source: the supplement of paper PMC10849652
Some of the results follow.

Chains of the proteins cited; added tags and fusions are not shown. Lines headed by an entry give the natural chain unless they say otherwise; changes in a name come on top.
UniProt Q9ULS5: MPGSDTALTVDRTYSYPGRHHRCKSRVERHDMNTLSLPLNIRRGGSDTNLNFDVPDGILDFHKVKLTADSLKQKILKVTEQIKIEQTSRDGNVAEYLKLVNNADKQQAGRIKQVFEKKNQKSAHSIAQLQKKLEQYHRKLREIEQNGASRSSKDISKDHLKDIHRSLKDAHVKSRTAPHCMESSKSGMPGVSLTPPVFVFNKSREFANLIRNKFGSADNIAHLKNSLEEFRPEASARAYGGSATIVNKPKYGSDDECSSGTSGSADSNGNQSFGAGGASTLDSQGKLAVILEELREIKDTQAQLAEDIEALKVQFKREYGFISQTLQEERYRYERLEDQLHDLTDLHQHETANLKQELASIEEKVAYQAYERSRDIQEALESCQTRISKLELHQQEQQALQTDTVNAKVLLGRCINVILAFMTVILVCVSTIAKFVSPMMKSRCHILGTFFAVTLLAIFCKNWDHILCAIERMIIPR
UniProt Q9NX78: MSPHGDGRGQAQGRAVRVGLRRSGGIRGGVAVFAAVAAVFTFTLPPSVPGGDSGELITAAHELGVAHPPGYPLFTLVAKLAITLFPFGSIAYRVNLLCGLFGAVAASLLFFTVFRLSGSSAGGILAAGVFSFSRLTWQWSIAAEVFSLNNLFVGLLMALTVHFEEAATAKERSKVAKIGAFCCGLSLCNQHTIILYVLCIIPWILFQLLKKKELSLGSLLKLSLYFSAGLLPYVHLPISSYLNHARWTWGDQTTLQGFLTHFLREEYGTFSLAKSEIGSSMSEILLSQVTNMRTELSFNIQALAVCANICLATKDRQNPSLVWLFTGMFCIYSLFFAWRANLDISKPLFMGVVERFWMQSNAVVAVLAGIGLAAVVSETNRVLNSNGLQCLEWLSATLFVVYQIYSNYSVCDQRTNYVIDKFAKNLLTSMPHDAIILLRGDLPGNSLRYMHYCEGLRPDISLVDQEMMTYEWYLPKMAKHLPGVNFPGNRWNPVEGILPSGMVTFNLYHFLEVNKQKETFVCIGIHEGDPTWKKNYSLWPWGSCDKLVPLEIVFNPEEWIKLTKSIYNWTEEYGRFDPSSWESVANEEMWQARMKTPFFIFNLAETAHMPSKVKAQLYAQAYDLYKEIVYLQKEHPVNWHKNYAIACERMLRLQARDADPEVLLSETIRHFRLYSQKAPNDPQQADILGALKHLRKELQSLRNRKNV
UniProt Q08117: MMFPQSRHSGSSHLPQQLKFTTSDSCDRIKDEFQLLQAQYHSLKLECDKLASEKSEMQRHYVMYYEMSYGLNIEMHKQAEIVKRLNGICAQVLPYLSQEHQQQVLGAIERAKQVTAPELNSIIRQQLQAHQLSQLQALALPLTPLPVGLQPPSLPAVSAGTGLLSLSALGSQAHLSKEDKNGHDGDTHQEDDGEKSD
UniProt Q03169: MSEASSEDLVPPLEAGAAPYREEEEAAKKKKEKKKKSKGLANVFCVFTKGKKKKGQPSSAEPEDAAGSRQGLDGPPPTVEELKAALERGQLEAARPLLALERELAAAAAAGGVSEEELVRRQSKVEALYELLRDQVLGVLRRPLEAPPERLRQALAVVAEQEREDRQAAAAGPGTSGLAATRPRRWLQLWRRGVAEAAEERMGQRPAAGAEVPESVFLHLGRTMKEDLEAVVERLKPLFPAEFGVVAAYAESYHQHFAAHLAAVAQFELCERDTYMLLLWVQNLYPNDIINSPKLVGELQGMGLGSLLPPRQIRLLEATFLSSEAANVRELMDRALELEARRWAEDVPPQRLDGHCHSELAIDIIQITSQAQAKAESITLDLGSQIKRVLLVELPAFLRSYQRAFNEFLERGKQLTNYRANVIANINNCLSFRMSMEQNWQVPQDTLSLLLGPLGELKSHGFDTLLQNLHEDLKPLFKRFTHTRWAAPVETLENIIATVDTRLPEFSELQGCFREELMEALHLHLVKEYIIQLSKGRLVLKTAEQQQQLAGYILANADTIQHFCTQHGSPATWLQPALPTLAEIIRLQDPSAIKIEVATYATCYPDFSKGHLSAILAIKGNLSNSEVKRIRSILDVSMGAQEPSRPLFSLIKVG
UniProt Q96AN5: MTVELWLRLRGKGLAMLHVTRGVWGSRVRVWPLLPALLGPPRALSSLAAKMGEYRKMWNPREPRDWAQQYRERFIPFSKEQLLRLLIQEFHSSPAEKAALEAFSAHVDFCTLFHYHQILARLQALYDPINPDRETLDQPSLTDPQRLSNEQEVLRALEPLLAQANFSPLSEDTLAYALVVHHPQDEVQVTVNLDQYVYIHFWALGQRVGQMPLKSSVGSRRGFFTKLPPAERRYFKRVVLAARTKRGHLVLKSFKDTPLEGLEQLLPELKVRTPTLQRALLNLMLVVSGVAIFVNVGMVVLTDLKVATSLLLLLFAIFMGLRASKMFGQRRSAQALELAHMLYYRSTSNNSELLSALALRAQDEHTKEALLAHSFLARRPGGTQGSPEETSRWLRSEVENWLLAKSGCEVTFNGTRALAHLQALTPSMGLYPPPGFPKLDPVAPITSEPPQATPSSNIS
UniProt Q9Y2Y6: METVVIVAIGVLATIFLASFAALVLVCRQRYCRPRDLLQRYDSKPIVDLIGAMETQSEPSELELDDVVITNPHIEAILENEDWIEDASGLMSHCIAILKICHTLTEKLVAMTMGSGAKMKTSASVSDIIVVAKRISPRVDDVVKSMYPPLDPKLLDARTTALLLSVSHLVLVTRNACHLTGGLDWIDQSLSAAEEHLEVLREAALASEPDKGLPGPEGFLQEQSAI
UniProt Q5SNT2: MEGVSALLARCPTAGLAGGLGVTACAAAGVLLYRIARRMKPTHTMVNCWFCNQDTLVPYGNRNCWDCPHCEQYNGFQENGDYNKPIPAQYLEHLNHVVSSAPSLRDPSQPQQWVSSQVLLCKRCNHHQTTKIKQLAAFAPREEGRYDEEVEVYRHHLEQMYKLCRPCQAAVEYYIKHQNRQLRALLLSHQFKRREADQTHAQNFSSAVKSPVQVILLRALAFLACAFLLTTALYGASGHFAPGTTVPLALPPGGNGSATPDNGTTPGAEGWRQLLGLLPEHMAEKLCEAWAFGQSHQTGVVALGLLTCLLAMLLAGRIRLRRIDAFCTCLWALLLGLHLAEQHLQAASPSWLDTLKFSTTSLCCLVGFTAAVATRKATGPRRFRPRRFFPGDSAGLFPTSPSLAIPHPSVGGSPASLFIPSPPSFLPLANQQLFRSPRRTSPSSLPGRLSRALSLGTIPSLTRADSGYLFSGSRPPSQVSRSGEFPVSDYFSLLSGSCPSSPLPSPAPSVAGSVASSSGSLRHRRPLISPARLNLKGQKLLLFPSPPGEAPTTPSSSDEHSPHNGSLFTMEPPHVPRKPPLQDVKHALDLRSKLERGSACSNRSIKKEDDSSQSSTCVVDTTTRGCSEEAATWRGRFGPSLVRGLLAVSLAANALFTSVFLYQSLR
UniProt P19438, whole entry, looked up: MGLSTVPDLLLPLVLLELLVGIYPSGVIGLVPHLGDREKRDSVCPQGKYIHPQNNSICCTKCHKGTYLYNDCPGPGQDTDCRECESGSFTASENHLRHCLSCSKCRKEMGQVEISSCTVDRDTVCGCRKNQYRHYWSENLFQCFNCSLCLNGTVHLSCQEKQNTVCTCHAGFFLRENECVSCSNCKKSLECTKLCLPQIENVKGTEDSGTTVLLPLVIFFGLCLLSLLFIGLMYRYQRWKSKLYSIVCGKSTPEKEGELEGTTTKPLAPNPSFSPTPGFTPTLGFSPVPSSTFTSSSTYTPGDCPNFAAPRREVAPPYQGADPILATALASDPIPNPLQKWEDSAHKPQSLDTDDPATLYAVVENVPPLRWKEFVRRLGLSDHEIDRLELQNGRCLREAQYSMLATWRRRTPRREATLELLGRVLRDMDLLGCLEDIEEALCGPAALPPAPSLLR
UniProt Q8N2U0: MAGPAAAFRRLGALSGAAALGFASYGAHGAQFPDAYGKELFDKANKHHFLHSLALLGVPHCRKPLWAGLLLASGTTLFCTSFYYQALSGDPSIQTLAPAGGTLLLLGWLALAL
UniProt O00206, whole entry, looked up: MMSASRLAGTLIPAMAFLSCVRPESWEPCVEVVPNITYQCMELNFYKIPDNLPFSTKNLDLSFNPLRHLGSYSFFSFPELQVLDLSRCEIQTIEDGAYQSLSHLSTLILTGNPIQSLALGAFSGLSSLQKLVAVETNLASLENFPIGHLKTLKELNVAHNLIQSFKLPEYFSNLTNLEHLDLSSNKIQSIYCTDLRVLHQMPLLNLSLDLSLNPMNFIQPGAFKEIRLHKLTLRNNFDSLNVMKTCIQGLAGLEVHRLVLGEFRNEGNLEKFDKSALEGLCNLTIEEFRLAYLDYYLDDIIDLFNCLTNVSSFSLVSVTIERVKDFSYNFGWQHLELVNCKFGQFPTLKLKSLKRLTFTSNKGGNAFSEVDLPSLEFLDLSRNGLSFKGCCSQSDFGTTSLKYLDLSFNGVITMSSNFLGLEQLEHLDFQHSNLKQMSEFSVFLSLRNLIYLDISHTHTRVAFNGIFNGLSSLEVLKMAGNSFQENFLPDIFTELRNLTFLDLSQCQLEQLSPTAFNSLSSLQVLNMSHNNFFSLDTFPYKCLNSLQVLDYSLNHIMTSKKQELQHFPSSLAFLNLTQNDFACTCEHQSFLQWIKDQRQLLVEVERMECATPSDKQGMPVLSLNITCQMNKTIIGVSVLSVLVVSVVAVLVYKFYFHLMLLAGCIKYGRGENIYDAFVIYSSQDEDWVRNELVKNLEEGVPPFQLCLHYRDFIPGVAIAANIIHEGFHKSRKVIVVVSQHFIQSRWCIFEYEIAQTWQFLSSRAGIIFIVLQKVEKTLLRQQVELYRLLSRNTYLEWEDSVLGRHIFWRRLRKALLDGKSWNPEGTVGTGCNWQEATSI
UniProt Q9H1K6: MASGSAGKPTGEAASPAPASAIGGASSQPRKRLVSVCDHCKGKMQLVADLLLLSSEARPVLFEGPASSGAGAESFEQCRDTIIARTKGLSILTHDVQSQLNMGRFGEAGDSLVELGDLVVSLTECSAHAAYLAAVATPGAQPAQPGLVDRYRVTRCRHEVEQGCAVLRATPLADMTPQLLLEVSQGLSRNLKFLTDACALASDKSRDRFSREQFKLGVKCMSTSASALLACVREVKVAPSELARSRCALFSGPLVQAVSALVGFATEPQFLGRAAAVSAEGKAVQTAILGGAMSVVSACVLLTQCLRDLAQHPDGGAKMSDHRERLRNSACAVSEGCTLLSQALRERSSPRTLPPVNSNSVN
UniProt Q8NCS4: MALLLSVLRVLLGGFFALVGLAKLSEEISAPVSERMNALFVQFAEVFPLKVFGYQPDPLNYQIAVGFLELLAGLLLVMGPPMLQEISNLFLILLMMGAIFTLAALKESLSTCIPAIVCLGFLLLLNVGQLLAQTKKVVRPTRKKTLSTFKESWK
UniProt A0PK00: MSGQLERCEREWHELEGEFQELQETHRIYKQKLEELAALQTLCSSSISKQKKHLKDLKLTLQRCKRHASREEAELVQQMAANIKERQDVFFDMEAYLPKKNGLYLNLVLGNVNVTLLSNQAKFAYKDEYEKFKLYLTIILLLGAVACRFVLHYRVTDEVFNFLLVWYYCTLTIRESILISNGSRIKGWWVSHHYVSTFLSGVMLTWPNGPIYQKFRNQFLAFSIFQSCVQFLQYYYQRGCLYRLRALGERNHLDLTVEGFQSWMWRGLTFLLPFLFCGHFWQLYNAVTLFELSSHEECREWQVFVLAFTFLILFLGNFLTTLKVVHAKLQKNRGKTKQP
UniProt O76062: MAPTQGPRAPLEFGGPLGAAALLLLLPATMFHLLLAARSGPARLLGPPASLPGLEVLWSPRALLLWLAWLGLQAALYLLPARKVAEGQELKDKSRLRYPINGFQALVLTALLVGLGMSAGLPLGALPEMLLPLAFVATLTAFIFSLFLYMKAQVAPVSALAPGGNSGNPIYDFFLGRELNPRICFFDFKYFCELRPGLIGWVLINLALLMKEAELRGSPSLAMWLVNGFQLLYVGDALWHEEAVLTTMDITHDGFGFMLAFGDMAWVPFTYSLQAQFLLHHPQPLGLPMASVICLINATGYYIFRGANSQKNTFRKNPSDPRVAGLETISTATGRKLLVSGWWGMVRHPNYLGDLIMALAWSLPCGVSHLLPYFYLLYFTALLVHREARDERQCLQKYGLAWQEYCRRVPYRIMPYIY
UniProt Q5T292: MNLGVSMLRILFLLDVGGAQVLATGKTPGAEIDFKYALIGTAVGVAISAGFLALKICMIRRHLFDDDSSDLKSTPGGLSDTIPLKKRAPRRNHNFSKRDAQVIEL
UniProt O95807: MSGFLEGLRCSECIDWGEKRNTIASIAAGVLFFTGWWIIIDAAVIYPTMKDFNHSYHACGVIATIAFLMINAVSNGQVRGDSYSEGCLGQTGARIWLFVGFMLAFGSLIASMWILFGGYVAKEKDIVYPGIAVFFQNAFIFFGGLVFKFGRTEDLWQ
UniProt O75204: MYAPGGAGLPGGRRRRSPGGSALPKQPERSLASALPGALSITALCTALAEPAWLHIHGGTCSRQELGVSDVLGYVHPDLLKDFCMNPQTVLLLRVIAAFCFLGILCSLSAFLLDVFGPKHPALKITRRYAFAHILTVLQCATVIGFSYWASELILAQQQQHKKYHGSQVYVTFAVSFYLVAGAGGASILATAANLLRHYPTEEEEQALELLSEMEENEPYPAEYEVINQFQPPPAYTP

How the values were obtained:
Test in all cases: log2 fold change, soluble protein after heating vs DMSO (PISA); higher = thermal stabilisation; K562 cells, 10 uM, 30 min; active = over 0.2 and 3.5 SD of the protein, either way, in both replicates (recomputed)
[1] = compound: C1=CC2=NC=CN=C2C=C1/C=C/3\C(=O)NC(=O)S3
In short: (§1)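 Aliquots of K562 cells (2×10^6 cells/mL) treated with 10 μM compound for 30 min were heated for 3 min over 48°C-58°C. After pooling and extraction in PBS with 0.5% NP-40 at 4°C, soluble protein from a 21,000xg, 90 min spin was quantified by TMTpro 16plex LC-MS/MS with channel sums equalised. Thermal stability is expressed against control samples, from duplicates, as a log2 fold change.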

[2] = compound: C1=CC=C(C=C1)C2=NC(=C(N2)C3=CC=NC=C3)C4=CC(=C(C=C4)Cl)O
In short: as §1

[3] = compound: C#Cc1cccc(Nc2ncnc3cc(OCCOC)c(OCCOC)cc23)c1 [erlotinib]
In short: as §1

[4] = compound: C/C(=N\NC(=O)C1=CC(=CC=C1)S(=O)(=O)N2CCOCC2)/C3=C(C=CC(=C3)Cl)O
In short: as §1

[5] = compound: C1=CC(=CC=C1C2=NC3=C(N2)C=C(C=C3)C(=O)N)OC4=CC=C(C=C4)Cl
In short: as §1

[6] = compound: C1=CC2=C(C=CC(=C2)/C=C\3/C(=O)NC(=NCC4=CC=CS4)S3)N=C1
In short: as §1

[7] = compound: C1=CC=C2C(=C1)C3=NNC4=CC=CC(=C43)C2=O
In short: as §1

[8] = compound: C1CCN(C1)C(=O)NC2=CC=CC(=C2)NC3=NC=C(C(=N3)NCCC4=CN=CN4)Br
In short: as §1

[9] = compound: C1CN(CCC1(CC2=CC=C(C=C2)Cl)N)C3=NC=NC4=C3C=CN4
In short: as §1

[10] = compound: C1=CC(=C(C=C1Cl)C2=NC3=NC=CN=C3C(=N2)NC4=CC=NC=C4)F
In short: as §1

Measured: log2 fold change

TMCC3 (UniProt Q9ULS5)
inactive: [1] 0.08 | [2] 0.122

TMEM260 (UniProt Q9NX78)
inactive: [3] 0.131 | [4] -0.072 | [5] 0.047 | [6] -0.051 | [7] -0.091 | [8] -0.031 | [9] 0.008

TLE5 isoform 2 (UniProt Q08117)
inactive: [4] 0.018 | [6] 0.032 | [2] 0.016 | [7] 0.089

TMEM167B (UniProt Q9NRX6)
inactive: [3] 0.099 | [5] 0.014 | [1] 0.057 | [2] -0.036 | [8] -0.058 | [9] 0.067

TNFAIP2 (UniProt Q03169)
inactive: [3] 0.325 | [5] -0.02 | [1] -0.059 | [8] 0.024 | [9] 0.14

TMEM143 (UniProt Q96AN5)
inactive: [3] -0.206 | [4] -0.114 | [5] -0.007 | [6] -0.092 | [7] -0.03 | [8] 0.024 | [9] 0.161

TMEM98 (UniProt Q9Y2Y6)
inactive: [1] 0.074 | [2] -0.153

TMEM201 (UniProt Q5SNT2)
inactive: [3] 0.087 | [10] 0 | [5] -0.01 | [1] 0.127 | [2] 0.054 | [8] -0.024 | [9] 0.01

TMTC4 isoform 3 (UniProt Q5T4D3)
inactive: [1] 0.11

TNFRSF1A (UniProt P19438)
inactive: [3] 0.034 | [10] -0.156 | [5] -0.108 | [8] 0.178 | [9] -0.111

TMEM131 (UniProt Q92545)
inactive: [3] 0.037 | [4] -0.078 | [5] 0.068 | [6] -0.052 | [7] -0.05 | [8] 0.125 | [9] -0.12

TMCC1 (UniProt O94876)
inactive: [4] -0.021 | [10] 0.12 | [6] 0.005 | [7] 0.197

TMEM184C (UniProt Q9NVA4)
inactive: [4] 0.04 | [10] -0.055 | [6] -0.05 | [1] -0.027 | [2] -0.047 | [7] -0.009 | [8] -0.092 | [9] -0.059

Copied from the results shown (ten entries):
TLE5 isoform 2 (UniProt Q08117)
inactive: [4] 0.018 | [6] 0.032 | [2] 0.016 | [7] 0.089

TMEM167B (UniProt Q9NRX6)
inactive: [3] 0.099 | [5] 0.014 | [1] 0.057 | [2] -0.036 | [8] -0.058 | [9] 0.067

TNFAIP2 (UniProt Q03169)
inactive: [3] 0.325 | [5] -0.02 | [1] -0.059 | [8] 0.024 | [9] 0.14

TMEM143 (UniProt Q96AN5)
inactive: [3] -0.206 | [4] -0.114 | [5] -0.007 | [6] -0.092 | [7] -0.03 | [8] 0.024 | [9] 0.161

TMEM98 (UniProt Q9Y2Y6)
inactive: [1] 0.074 | [2] -0.153

TMEM201 (UniProt Q5SNT2)
inactive: [3] 0.087 | [10] 0 | [5] -0.01 | [1] 0.127 | [2] 0.054 | [8] -0.024 | [9] 0.01

TMTC4 isoform 3 (UniProt Q5T4D3)
inactive: [1] 0.11

TNFRSF1A (UniProt P19438)
inactive: [3] 0.034 | [10] -0.156 | [5] -0.108 | [8] 0.178 | [9] -0.111

TMEM131 (UniProt Q92545)
inactive: [3] 0.037 | [4] -0.078 | [5] 0.068 | [6] -0.052 | [7] -0.05 | [8] 0.125 | [9] -0.12

TMCC1 (UniProt O94876)
inactive: [4] -0.021 | [10] 0.12 | [6] 0.005 | [7] 0.197

Next entries follow.

TMEM256 (UniProt Q8N2U0)
inactive: [3] -0.104 | [5] -0.087

TMEM94 isoform 2 (UniProt Q12767)
inactive: [3] 0.206 | [4] 0.026 | [5] -0.04 | [6] 0.025 | [7] -0.131

TLR4 (UniProt O00206)
inactive: [3] 0.22 | [5] 0.168 | [1] -0.019 | [2] 0.051 | [8] -0.066 | [9] 0.079

TLNRD1 (UniProt Q9H1K6)
inactive: [8] -0.1 | [9] -0.042

TMEM35B (UniProt Q8NCS4)
inactive: [3] -0.031 | [5] -0.159 | [1] -0.06 | [8] -0.138 | [9] -0.04

TMCO3 (UniProt Q6UWJ1)
inactive: [10] -0.001 | [2] 0.139

TMEM120B (UniProt A0PK00)
inactive: [3] 0.052 | [4] -0.026 | [5] 0.026 | [6] -0.046 | [2] 0.047 | [7] 0.061 | [8] -0.316 | [9] 0.116

TMEM184B (UniProt Q9Y519)
inactive: [3] 0.081 | [5] 0.055 | [1] 0.114 | [8] -0.134 | [9] -0.139

TMEM246 (UniProt Q9BRR3)
inactive: [3] -0.112 | [5] 0.251

TMEM106C (UniProt Q9BVX2)
inactive: [3] -0.045 | [5] -0.124 | [1] -0.041

TM7SF2 (UniProt O76062)
inactive: [3] -0.012 | [5] -0.05 | [2] -0.151

TMEM273 isoform 2 (UniProt Q5T292)
inactive: [4] -0.037 | [6] 0.218 | [7] -0.017 | [8] 0.169 | [9] -0.14

TMEM79 (UniProt Q9BSE2)
inactive: [4] -0.232 | [6] 0.07 | [1] 0.153 | [7] -0.15 | [8] -0.001 | [9] 0.065

TMEM50A (UniProt O95807)
inactive: [4] 0.052 | [10] -0.013 | [6] 0.129 | [1] 0.024 | [7] -0.145 | [8] 0.078 | [9] 0.228

TMEM237 isoform 3 (UniProt Q96Q45)
inactive: [3] -0.126 | [10] 0.132 | [5] 0.02 | [8] -0.073 | [9] 0.227

TMEM44 (UniProt Q2T9K0)
inactive: [3] 0.005 | [5] 0.128

TMEM127 (UniProt O75204)
inactive: [3] -0.09 | [4] 0.008 | [5] 0.079 | [6] 0.175 | [7] 0.034 | [8] 0.081 | [9] 0.133

TMPO (UniProt G5E972)
inactive: [3] 0.03 | [5] -0.163

TMCC2 (UniProt O75069)
inactive: [4] -0.254 | [6] 0.081 | [7] 0.07

TMEM175 (UniProt Q9BSA9)
inactive: [3] -0.045 | [4] 0.297 | [5] 0.042 | [6] -0.019 | [7] 0.508 | [8] 0.003 | [9] -0.032

TMEM129
inactive: [8] 0.078 | [9] 0.015

TMEM8A (UniProt Q9HCN3)
inactive: [3] 0.046 | [5] -0.001 | [1] 0.02 | [2] 0.124 | [8] -0.014 | [9] 0.011
